The values that follow come from ChEMBL document CHEMBL5042535, “Structure-Based Design and Synthesis of N-Substituted 3-Amino-β-Carboline Derivatives as Potent αβ-Tubulin Degradation Agents” (J Med Chem, 2022).

A short description of data set [1]: Toxicity in mouse xenografted with human A2780T cells assessed as body weight loss at 10 to 30 mg/kg, iv treated 3 times a week. The format is organism-based. To be noted: in vivo, dose 10-30 mg/kg. (In xenograft studies the graft and the host belong to different species.)
The next data set deals with A549. Nature of the data set: Cytotoxicity in human A549 assessed as inhibition in cell growth measured after 24 hrs by MTT assay. The format is functional, cell-based. The note with it: A549, 24 h. In general terms: Tetrazolium dyes change colour on reduction, which living cells bring about.

By IC50 is commonly meant the midpoint of a concentration-inhibition curve. On to `CC(=O)O[C@H]1C(=O)[C@@]2(C)[C@H]([C@H](OC(=O)c3ccccc3)[C@]3(O)C[C@H](OC(=O)[C@H](O)[C@@H](NC(=O)c4ccccc4)c4ccccc4)C(C)=C1C3(C)C)[C@]1(OC(C)=O)CO[C@@H]1C[C@@H]2O` [PACLITAXEL], for which the Activity result in data set [1] is listed as “Non-Toxic”. Further, the IC50 in the data set with A549 stood at 24.2 nM.
